Article PMC12040169 (PLOS Biology, 2025)
The other results are listed elsewhere or left out.

These molecules were tested on T1, CTL2-GFP (C. trachomatis L2/434/Bu, GFP-expressing). Settings: bulk GFP, single well; 28.5 h, 10 µM; inhibitor.
T1 construct: L2/434/Bu, GFP-expressing
Parameters: species or system HeLa; Intracellular C. trachomatis growth in HeLa cells, bulk GFP fluorescence relative to DMSO

SMILES | % of control remaining [%]
c1cncc(COc2cncc(N3CCCC3)n2)c1 [CBK115892] | 100
Cc1cc(S(=O)(=O)NCc2ccccc2)ccc1OCC(=O)N1CCN(C)CC1 [CBK268274] | 118.059
O=C1C=C(O)CC(CCc2ccc(F)cc2)(CCc2ccc(F)cc2)O1 [CBK008148] | 100.044
O=C(Nc1ccc(N2CCCC2)c(F)c1)C1CC(=O)N(C2CC2)C1 (stereo not drawn) [CBK281461] | 115.562
CC(C)c1nc2c(n1C)CCN(Cc1cc(=O)n3ccccc3n1)C2 [CBK305061] | 135.536
O=C(NCc1ccc(-c2nc3ncccc3o2)cc1)c1ccc(F)cc1 [CBK270182] | 120.533
Cc1ncc(CNC(=O)C2CC2)c(-c2cn(C)c3ccccc23)n1 [CBK283366] | 118.452
CN(C)CCN1C(=O)C(O)=C(C(=O)c2ccc(S(=O)(=O)N3CCOCC3)cc2)C1c1ccc(Br)cc1 (stereo not drawn) [CBK264693] | 126.309
NC(=O)CSc1nnc(NC(=O)c2ccccc2Cl)s1 [CBK287629] | 129.472
COc1cccc(Nc2cc(-c3ccc(CC(C)C)cc3)ncn2)c1 [CBK090745] | 162.027
CCCc1c(C(=O)NCC(C)(C)CN(C)C)cnn1-c1cc(Cl)cc(Cl)c1 [CBK107381] | 134.183
Cc1noc(C)c1CC(=O)N1CCc2[nH]c3ccccc3c2C1 [CBK281848] | 171.621
N#Cc1ccsc1NC(=O)CN1CCC(CNc2ccccn2)C1 (stereo not drawn) [CBK306117] | 114.465
O=C(/C=C/c1ccccc1)N/C(=C/c1ccccc1)C(=O)Nc1ccc2ccccc2c1 [CBK265023] | 102.901
CCOc1ccccc1-c1ccccc1NC(=O)c1nc2ccccc2n(C)c1=O [CBK285855] | 127.614
O=C(CSc1ncccn1)Nc1cccc(Cl)c1 [CBK058217] | 142.48
COc1ccccc1-c1ncc(OCC(F)(F)F)nc1NC(=O)c1ccco1 [CBK145277] | 62.1183
Cc1cc2c(o1)c1cnn(CC(=O)N3CCCC3)c(=O)c1n2C [CBK284223] | 115.703
O=C(NCCCc1ccc(F)cc1)c1cccc(-n2cnnc2)c1 [CBK282713] | 112.757
Cc1no[n+]([O-])c1COc1cccc(/C=C2\N=C(c3ccccc3)OC2=O)c1 [CBK263454] | 113.919
CC(=O)Nc1ccc(NC(=O)c2cnc(-c3ccc(F)cc3)c(-c3ccco3)c2)cc1 [CBK037977] | 133.246
Cc1ccc(N2C(=O)c3[nH]nc(C)c3C2c2ccc(O)cc2)cc1 (stereo not drawn) [CBK287915] | 58.8996
COc1ccc(/C=C(/NC(=O)/C=C/c2ccccc2)C(=O)O)cc1 [CBK264996] | 100
c1ccc(N2CCN(c3cccc(-c4ccc5c(c4)OCO5)n3)CC2)nc1 [CBK036851] | 138.85
NNC(=O)c1cc(-c2ccccc2)nc2ccc(Br)cc12 [CBK261762] | 109.426
CCn1cc(NC(=S)Nc2sc3c(c2C(=O)OC)CCC(C)C3)c(C(N)=O)n1 (stereo not drawn) [CBK267032] | 132.201

7 compounds already listed, arranged by formula weight, ascending.
SMILES | % of control remaining [%]
Cc1ccc(N2C(=O)c3[nH]nc(C)c3C2c2ccc(O)cc2)cc1 (stereo not drawn) [CBK287915] | 58.8996
O=C(NCCCc1ccc(F)cc1)c1cccc(-n2cnnc2)c1 [CBK282713] | 112.757
O=C(Nc1ccc(N2CCCC2)c(F)c1)C1CC(=O)N(C2CC2)C1 (stereo not drawn) [CBK281461] | 115.562
COc1cccc(Nc2cc(-c3ccc(CC(C)C)cc3)ncn2)c1 [CBK090745] | 162.027
c1ccc(N2CCN(c3cccc(-c4ccc5c(c4)OCO5)n3)CC2)nc1 [CBK036851] | 138.85
Cc1no[n+]([O-])c1COc1cccc(/C=C2\N=C(c3ccccc3)OC2=O)c1 [CBK263454] | 113.919
CN(C)CCN1C(=O)C(O)=C(C(=O)c2ccc(S(=O)(=O)N3CCOCC3)cc2)C1c1ccc(Br)cc1 (stereo not drawn) [CBK264693] | 126.309

Next part.

SMILES | % of control remaining [%]
O=C(c1nc(=O)[nH][nH]1)N1CCN(Cc2ccc(C(F)(F)F)cc2)CC1 [CBK298312] | 115.223
CN1CCC(N(C)Cc2cc(Cl)ccc2[N+](=O)[O-])CC1 [CBK261576] | 123.327
O=C(O)C1CCN(C(=O)Nc2ccccc2Cl)CC1 [CBK161407] | 98.6591
O=C(Nc1ccc(Cl)c(Cl)c1)N1CCN(c2n[nH]c(=O)[nH]c2=O)CC1 [CBK297514] | 150.023
O=S(=O)(NCc1ccc(CNS(=O)(=O)c2ccccc2)cc1)c1ccccc1 [CBK265471] | 91.8919
COc1ccc(-n2c(SCC(=O)O)nnc2-c2cccs2)cc1 [CBK265636] | 93.8535
Cc1ccc2[nH]c(Cc3ccc(NC(=O)CCC4C(=O)Nc5ccccc54)cc3)nc2c1 (stereo not drawn) [CBK285824] | 137.291
CCn1ncc(S(=O)(=O)N2CCCC(c3cccc(Cc4cccc(C)c4)n3)C2)c1C (stereo not drawn) [CBK286244] | 97.4223
O=C(O)CCCc1nc(-c2ccccn2)no1 [CBK010880] | 146.214
Nc1ccc(C(=O)Nc2ccc(Nc3cc(-c4ccco4)ncn3)cc2)cc1 [CBK091099] | 112.523
O=C(CC(C(=O)O)n1cnc([N+](=O)[O-])n1)c1ccc(Br)cc1 (stereo not drawn) [CBK267524] | 144.712
CC(C)(C)NC(=O)CN1CCC(c2ccccc2F)CC1 [CBK283499] | 117.421
Cn1cc(C(O)CNC(=O)NCCc2csc3ccccc23)cn1 (stereo not drawn) [CBK305219] | 64.0517
O=C(Nc1ccc(F)cc1)c1[nH]c2ccccc2c1NS(=O)(=O)c1ccc(C(F)(F)F)cc1[N+](=O)[O-] [CBK050090] | 108.746
CCC(Oc1ccccc1)C(=O)Nc1ccccc1-c1ccccc1 (stereo not drawn) [CBK266031] | 73.4163
COc1ccccc1NC(=O)c1ccc(-c2nnc(-c3ccccc3)o2)cc1 [CBK266533] | 144.587
O=C(CSc1nnc(-c2ccco2)n1Cc1ccco1)c1ccc(-c2ccccc2)cc1 [CBK267555] | 152.5
COc1ccccc1-c1cn2ccnc2c(N(C)CCN(C)C)n1 [CBK066156] | 164.439
COc1cccc(CNc2nccc(-n3nc(C)cc3C)n2)c1 [CBK288612] | 145.724
CC1=CC(C)C(CNCCN2CCNCC2)C(C)C1 (stereo not drawn) [CBK262832] | 85.5169
O=C(NC1=NCCS1)c1cc2ccccc2o1 [CBK058927] | 136.354
CCc1c(C)nc2c(NC(C)=O)cccc2c1SCCC(=O)O [CBK159594T] | 122.08
O=C1Nc2cc(C(F)(F)F)ccc2N2CCCC12 (stereo not drawn) [CBK288125] | 153.555
CCN1CCC[C@@H]1CNC(=O)c1n[nH]c2c1CCC2 [CBK174628] | 127.737
O=C1CCCN1c1ccc(CN2CCC(O)(c3ccccc3)C2)cc1 (stereo not drawn) [CBK282808] | 115.255
CC(C)(C)NCC(O)c1ccc(O)c2c1C1CCC2CC1 (stereo not drawn) [CBK013269C] | 141.625

SMILES | % of control remaining [%]
Cc1cc(C)n2nc(CC(=O)N3CCCC3c3ccccn3)nc2n1 (stereo not drawn) [CBK304408] | 157.787
O=S(=O)(Cc1ccccc1)c1cc2c(N3CCNCC3)nccc2s1 [CBK200017C] | 111.673
CCOC(NC(=O)Nc1ccc(Br)cc1)(C(F)(F)F)C(F)(F)F [CBK027208] | 119.396
CN(CCC#N)S(=O)(=O)c1ccc(Cl)c(Cl)c1 [CBK045396] | 124.62
Cc1ccc(S(=O)(=O)N(C)CC(=O)Nc2ncc(C(F)(F)F)cc2Cl)cc1 [CBK266729] | 134.92
Cn1c(=O)c2c(nc(CN3CCN(Cc4ccccc4)CC3)n2CCCc2ccccc2)n(C)c1=O [CBK269582] | 182.215
CC(C)CN(CC(=O)NC1(c2ccccc2)CCC1)C(=O)N(C)C [CBK062704] | 161.393
O=C(c1ccc(F)cc1)N1CCC(c2cc3cccnc3[nH]2)CC1 [CBK285001] | 137.393
CCC(=O)N1CCC[C@H]1Cn1nc(-c2ccc(F)cc2)ccc1=O [CBK284253] | 139.262
Cn1ccnc1C1(O)CC2CCC(C1)N2C(=O)Nc1ccccc1F (stereo not drawn) [CBK284178] | 112.766
COc1cccc([C@H]2CN(C(=O)c3ccccc3)[C@@H]3CCN(Cc4ccsc4)C[C@H]23)c1 [CBK285611] | 85.5121
COc1ccccc1CCC(=O)NCc1cnc(SC)n1C [CBK306926] | 159.914
O=C(CNC(=O)c1ccccc1)N/N=C/c1ccc(C(=O)O)cc1 [CBK261976] | 88.7098
CC(C)N(C(=O)c1ccccc1-c1cnc2nncn2c1)C(C)C [CBK306701] | 106.774
CS(=O)(=O)c1ccc(Cn2ccnc(N3CCN(C(=O)c4ccc5occc5c4)CC3)c2=O)cc1 [CBK153777] | 105.761
O=C(Nc1cccnc1N1CCNCC1)c1cc(F)cc(F)c1 [CBK029420T] | 120.222
O=C(O)CCCN1C(=O)C(O)=C(C(=O)c2ccc([N+](=O)[O-])cc2)C1c1ccccc1F (stereo not drawn) [CBK263810] | 85.5102
CN1CCN(C(=O)c2ccc(-c3ccco3)nc2N(C)C)CC1 [CBK106121] | 121.162
O=C(Nc1ccccc1Nc1cc(-c2ccccc2)nn1-c1ccccc1)c1ccc(Br)cc1 [CBK261297] | 60.3232
Cc1cc(C)nc(-n2ncc3c2CC(c2cccs2)CC3=O)n1 (stereo not drawn) [CBK269371] | 125.796
CNc1cc(C(=O)N[C@@H]2CCOC[C@H]2Oc2ccc(CO)cc2)ccn1 [CBK306606] | 134.681
Cc1ccc2nc(C)cc(C(=O)OCc3ccc(C(N)=O)cc3)c2c1 [CBK296676] | 151.334
O=C1C(=CNCCC(c2ccccc2)c2ccccc2)C(=O)c2ccccc21 [CBK262987] | 100
Cc1ccc(-c2cc(C(=O)NCCCN3CCOCC3)c3cc(Cl)ccc3n2)o1 [CBK267737] | 110.961
CC(=O)C1=C(O)C(=O)N(CCCC(=O)O)C1c1ccc(Br)cc1 (stereo not drawn) [CBK286784] | 77.791
CN1CCCN(c2cncc(-c3cc4ccccc4o3)n2)CC1 [CBK065997] | 220.222
